Substitutions are numbered along the chain they refer to. Names and notes keep the numbering of the source. These are yes or no findings as the source states them, for the method shown. Some entries that bind do so weakly or less than the wild type. For some of these results: Tags and fused reporters may be left off the sequences shown.
Assays:
myc-tagged CSPα L115R = myc-tagged CSPα L115R (UniProt P60905); assay: SDS-PAGE and immunoblot of detergent-resistant oligomers; soluble CAD cell lysates (1% Triton X-100, 0.1% SDS lysis buffer) 24-72 h after transient transfection; blots with anti-myc, anti-flag or anti-CSPα
myc-tagged CSPα L116Δ = myc-tagged CSPα L116Δ (UniProt P60905); assay: as above
[1] = molecular target: endogenous CSPα of CAD cells (mouse (endogenous in CAD cells)) (UniProt P60904); assay: as above
[2] = molecular target: T1, endogenous CSPα of human cortex (control) (human (endogenous in post-mortem cortex)), Q9H3Z4; assay: SDS-PAGE and immunoblot of detergent-resistant oligomers; crude synaptosomes (P2) of post-mortem human cortex solubilized in 0.5% Triton-X100/PBS at 4°C, then Laemmli sample buffer at 37°C for 1 hour; anti-CSPα blot, long exposure; details: remark: other sources report otherwise
T1 chain: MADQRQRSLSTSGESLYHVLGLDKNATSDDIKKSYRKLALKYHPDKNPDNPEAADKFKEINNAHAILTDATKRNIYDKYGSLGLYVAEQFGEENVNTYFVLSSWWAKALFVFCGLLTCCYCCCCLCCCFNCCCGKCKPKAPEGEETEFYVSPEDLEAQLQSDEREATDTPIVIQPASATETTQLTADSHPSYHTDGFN

B1: myc-tagged CSPα L115R (protein, UniProt P60905 1-198)
chain: T1 chain with F112V, L115R
binding (myc-tagged CSPα L115R): binds

B2: myc-tagged CSPα L116Δ (protein, UniProt P60905 1-198)
chain: MADQRQRSLSTSGESLYHVLGLDKNATSDDIKKSYRKLALKYHPDKNPDNPEAADKFKEINNAHAILTDATKRNIYDKYGSLGLYVAEQFGEENVNTYFVLSSWWAKALFVVCGLTCCYCCCCLCCCFNCCCGKCKPKAPEGEETEFYVSPEDLEAQLQSDEREATDTPIVIQPASATETTQLTADSHPSYHTDGFN
binding (myc-tagged CSPα L116Δ): binds

B3: endogenous CSPα of CAD cells (protein, UniProt P60904 1-198)
chain: T1 chain with F112V
binding [1]: binds

B4: endogenous CSPα of human cortex (control), Q9H3Z4 1-198 (protein)
chain: T1 chain
binding [2]: binds
